Measured values published in patent publication US5300432.

Tested on: Srf I restriction endonuclease (Streptomyces rf (ATCC 55215))
Test: enzyme reaction in vitro
Settings: purified native protein, protein details: FPLC purified from native strain, 55-64 kd

CAAGCCCGGGCTTG (double strand) [Srf I linker in pSMSrf I (pBluescript II SK+ EcoR V site)]
activity on this sequence (cleaved after third C, blunt ends, 37 C 15 min): active

CAGCGCCATTATGAGCAAGGAAATTCCCACGCCCTACATGTGGAGTTACCAGCCACAAATGGGACTTGCGGCTGGAGCTGCCCAAGACTACTCAACCCGAATAAACTACATGAGCGCGGGACCCCACATGATATCCCGGGTCAACGGAATCCGCGCCCACCGAAACCGAATTCTCCTCGAACAGGCGGCTATTACCACCACACCTCGTAATAACCTTAATCCCCGTAGTTGGCCCGCTGCCCTGGTGTACCAGGAAAGTCCCGCTCCCACCACTGTGGTACTTCCCAGAGACGCCCAGGCCGAGGTTCAGATGACTAACTCAGGGGCGCAGCTTGCGGGCGGCTTTCGTCACAGGGTGCGGTCGCCCGGGCAGGGTATAACTCACCTGAAAATCAGAGGGCGAGGTATTCAGCTCAACGACGA (double strand) [Ad-2 PCR fragment C (nt 27205-27627)]
activity on this sequence (cleaved GCCC*GGGC to 366 and 56 bp, 1X Universal Buffer (Mg acetate, K acetate), 37 C, 3 h): active

CTCACCTGAAAATCAGAGGGCGAGGTATTCAGCTCAACGACGAGTCGGTGAGCTCCTCTCTTGGTCTCCGTCCGGACGGGACATTTCAGATCGGCGGCGCTGGCCGCTCTTCATTTACGCCCCGTCAGGCGATCCTAACTCTG (double strand) [Ad-2 PCR fragment B (nt 27585-27727)]
activity on this sequence (not digested, 37 C, 3 h): not active

GACGGGACATTTCAGATCGGCGGCGCTGGCCGCTCTTCATTTACGCCCCGTCAGGCGATCCTAACTCTGCAGACCTCGTCCTCGGAGCCGCGCTCCGGAGGCATTGGAACTCTACAATTTATTGAGGAGTTCGTGCCTTCGGTTTACTTCAACCCCTTTTCTGGACCTCCCGGCCACTACCCGGACCAGTTTATTCCCAACTTTGACGCGGTGAAAGACTCGGCGGACGGCTACGACTGAATGACCAGTGGAG (double strand) [Ad-2 PCR fragment A (nt 27659-27911)]
activity on this sequence (not digested, 37 C, 3 h): not active

The exact form of at least one protein or probe is not confirmed. No signal at the amounts used counts as a negative.
